No constants are given. Whether binding was seen depends on the method and setting. In cells and extracts the contact can be indirect. Some results given as binding are weak or reduced against the parent protein; the word gives no strength.
What was measured:
[1] = molecular target: Argonaute 1 (AGO1) (human (endogenous in HAECs and HUVECs)) (UniProt Q9UL18); experiment: proximity ligation
[2] = molecular target: Argonaute 1 (AGO1) (human (endogenous in HAECs and HUVECs)) (UniProt Q9UL18); experiment: co-IP

The chains behind the UniProt entries cited, without tags or fusion partners.
UniProt Q04206: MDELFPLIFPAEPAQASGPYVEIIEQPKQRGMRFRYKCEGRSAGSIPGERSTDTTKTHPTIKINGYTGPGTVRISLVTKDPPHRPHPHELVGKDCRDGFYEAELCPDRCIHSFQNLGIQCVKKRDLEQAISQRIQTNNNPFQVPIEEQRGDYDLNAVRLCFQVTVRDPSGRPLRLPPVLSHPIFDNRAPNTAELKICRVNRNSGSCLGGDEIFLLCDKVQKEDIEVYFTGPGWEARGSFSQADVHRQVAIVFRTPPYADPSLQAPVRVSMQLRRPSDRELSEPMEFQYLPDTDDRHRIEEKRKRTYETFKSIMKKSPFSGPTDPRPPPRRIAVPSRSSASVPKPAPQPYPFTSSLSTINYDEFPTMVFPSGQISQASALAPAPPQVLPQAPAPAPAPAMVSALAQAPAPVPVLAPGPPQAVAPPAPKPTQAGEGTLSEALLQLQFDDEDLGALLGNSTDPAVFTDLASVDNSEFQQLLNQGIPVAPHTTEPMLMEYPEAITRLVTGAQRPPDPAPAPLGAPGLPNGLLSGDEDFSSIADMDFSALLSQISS

Substance: NF-κB p65 (RELA) (from UniProt Q04206 1-551)
- binding [1]: binds
- binding [2]: binds
